Assay results published in article PMC4869170.

Protein sequences, listed by entry. Tags and fused reporters are not part of them.
UniProt O94967: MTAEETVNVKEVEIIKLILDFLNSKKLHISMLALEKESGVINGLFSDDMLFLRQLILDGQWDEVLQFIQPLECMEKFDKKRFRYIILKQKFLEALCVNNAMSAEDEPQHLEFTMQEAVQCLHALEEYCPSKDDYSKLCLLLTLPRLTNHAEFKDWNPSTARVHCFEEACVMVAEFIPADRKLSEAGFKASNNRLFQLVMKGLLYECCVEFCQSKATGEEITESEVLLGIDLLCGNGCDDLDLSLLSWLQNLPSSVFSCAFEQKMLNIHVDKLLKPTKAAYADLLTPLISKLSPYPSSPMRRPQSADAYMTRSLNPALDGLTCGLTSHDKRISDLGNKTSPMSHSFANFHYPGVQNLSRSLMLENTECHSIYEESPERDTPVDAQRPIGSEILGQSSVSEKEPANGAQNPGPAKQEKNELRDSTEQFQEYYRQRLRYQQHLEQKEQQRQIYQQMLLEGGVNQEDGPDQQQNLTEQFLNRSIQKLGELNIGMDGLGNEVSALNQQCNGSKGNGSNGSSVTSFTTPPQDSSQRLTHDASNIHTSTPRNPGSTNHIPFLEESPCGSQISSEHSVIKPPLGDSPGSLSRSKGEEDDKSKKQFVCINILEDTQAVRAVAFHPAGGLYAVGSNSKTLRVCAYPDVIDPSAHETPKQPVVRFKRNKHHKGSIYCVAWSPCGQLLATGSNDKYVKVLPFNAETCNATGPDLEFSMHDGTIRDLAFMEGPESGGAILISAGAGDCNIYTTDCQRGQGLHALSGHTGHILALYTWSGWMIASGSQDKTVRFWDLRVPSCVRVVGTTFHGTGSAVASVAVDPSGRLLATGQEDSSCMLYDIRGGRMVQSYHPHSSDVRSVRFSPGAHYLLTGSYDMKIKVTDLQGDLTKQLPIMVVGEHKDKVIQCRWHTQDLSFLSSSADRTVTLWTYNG
UniProt Q9Y266: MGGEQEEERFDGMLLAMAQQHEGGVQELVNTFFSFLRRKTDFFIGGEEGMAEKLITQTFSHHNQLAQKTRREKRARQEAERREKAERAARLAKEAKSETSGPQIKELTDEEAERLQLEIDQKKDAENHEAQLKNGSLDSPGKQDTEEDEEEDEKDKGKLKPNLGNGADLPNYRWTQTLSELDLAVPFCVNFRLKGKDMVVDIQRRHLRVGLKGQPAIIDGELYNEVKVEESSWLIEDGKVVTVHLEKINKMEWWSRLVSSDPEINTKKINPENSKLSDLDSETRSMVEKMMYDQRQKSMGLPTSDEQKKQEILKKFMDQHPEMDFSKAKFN

Legend:
Assay in all cases: affinity purification with mass spectrometry; SF-TAP-tagged bait overexpressed in HEK293T; lysis in 0.5% NP-40 in TBS (30 mM Tris-HCl pH 7.4, 150 mM NaCl); two steps at 4 °C: Strep-Tactin superflow (desthiobiotin elution), then anti-FLAG M2 agarose (FLAG peptide elution); LC-MS/MS; interactions scored by socioaffinity
[1] = biological target: T1, DCAF7 (human) (UniProt P61962)
T1 sequence: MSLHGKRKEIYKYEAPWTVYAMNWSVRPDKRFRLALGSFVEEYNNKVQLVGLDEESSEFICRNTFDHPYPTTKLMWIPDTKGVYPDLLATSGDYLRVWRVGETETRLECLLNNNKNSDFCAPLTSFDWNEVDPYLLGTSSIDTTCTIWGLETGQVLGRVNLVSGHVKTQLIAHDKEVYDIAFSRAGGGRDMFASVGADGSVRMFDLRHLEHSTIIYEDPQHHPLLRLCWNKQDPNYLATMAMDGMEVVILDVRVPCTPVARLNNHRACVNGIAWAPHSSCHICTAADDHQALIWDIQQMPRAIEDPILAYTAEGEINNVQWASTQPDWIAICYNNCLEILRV

[2] = biological target: T2, SPAG16 (human) (UniProt Q8N0X2)
T2 sequence: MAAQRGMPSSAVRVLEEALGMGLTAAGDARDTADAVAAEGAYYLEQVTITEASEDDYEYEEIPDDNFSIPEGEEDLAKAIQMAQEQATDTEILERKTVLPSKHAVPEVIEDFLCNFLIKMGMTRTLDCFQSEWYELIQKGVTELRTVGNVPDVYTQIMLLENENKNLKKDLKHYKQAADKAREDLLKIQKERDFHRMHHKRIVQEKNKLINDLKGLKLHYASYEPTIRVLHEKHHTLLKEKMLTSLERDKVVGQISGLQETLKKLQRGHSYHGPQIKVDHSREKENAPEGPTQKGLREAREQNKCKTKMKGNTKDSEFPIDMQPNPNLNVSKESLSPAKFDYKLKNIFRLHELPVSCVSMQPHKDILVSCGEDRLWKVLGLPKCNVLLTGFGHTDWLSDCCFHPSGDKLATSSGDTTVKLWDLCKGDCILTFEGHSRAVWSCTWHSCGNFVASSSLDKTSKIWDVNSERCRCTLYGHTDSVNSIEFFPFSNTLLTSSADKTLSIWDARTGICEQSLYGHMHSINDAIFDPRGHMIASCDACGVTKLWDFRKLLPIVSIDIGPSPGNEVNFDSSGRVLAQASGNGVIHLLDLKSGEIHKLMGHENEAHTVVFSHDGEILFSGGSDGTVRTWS

[3] = biological target: T3, WDR35 (human) (UniProt Q9P2L0)
T3 sequence: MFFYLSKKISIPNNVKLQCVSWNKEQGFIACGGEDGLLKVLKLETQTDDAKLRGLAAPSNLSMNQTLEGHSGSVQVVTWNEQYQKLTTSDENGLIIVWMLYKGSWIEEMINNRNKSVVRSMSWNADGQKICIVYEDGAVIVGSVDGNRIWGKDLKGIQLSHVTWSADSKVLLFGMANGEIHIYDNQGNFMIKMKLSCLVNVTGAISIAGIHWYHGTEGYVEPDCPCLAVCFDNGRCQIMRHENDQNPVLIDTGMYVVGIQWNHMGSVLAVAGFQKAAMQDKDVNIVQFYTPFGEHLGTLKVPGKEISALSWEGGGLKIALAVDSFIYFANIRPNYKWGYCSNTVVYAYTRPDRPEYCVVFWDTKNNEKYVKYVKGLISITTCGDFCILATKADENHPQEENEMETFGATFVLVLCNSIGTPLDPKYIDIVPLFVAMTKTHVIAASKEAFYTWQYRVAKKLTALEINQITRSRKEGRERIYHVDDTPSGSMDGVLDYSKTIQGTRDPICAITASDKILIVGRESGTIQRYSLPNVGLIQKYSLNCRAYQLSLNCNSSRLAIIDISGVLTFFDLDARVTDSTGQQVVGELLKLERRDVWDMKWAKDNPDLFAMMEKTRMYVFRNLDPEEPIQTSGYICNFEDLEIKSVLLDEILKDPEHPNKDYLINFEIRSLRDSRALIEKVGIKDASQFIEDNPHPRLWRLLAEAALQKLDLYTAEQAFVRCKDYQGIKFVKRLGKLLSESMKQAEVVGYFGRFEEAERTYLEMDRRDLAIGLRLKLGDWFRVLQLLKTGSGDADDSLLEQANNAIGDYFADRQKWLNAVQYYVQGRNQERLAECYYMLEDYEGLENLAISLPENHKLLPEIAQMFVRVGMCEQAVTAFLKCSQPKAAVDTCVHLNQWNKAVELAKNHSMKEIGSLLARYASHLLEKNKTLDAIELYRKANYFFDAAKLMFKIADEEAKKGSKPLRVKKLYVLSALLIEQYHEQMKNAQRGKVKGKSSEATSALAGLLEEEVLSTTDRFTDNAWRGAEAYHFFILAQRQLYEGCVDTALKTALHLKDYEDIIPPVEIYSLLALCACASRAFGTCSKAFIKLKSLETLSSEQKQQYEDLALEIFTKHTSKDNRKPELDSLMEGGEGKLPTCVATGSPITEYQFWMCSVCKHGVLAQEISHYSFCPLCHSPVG

[4] = biological target: WDR47 (human) (UniProt O94967)

- binding [1]: no binding
- binding [2]: no binding
- binding [3]: binds
- binding [4]: no binding
Substance: NUDC (from UniProt Q9Y266 1-331)

No constants are given. Whether binding was seen depends on the method and setting. Binding seen in cells or lysates may run through a third protein. Here binding means that the protein was enriched with, or labelled near, the bait; the list need not be complete. For some of these results: A no says only that the protein was not detected with the bait.
